The values that follow are results of earlier work, collected in US20240127967A1.

Data set [1] relates to EBOV/Mak. The settings on record: read-out: IC50 (Huh7); cited from earlier work.
Data set [2] relates to EBOV. The settings on record: read-out: IC50 (HepG2); cited from earlier work.

The IC50 is the midpoint of a concentration-inhibition curve. `O=C1CCc2ccc(OCCCCN3CCN(c4cccc(Cl)c4Cl)CC3)cc2N1` [Aripiprazole]: the 50% inhibitory concentration (IC50) in data set [1] is 7800 nM; in data set [2], 3760 nM.
Take `CCN(CC)CCOc1ccc(C(=C(Cl)c2ccccc2)c2ccccc2)cc1` [Clomiphene]: the figures for the IC50 in data set [1] and in data set [2] were 1960 nM and 760 nM, respectively.
